Results are given in words; binding and its absence hold for the method and conditions named. Some results given as binding are weak or reduced against the parent protein; the word gives no strength.

The values below come from patent publication US20230416382A1.

This assay has as its target cynomolgus CCR8 (Macaca fascicularis (cynomolgus)). Kind of assay: flow cytometry titration on cyCCR8_293 (HEK293) cells, anti-hIgG BV421 secondary. (In general: In flow cytometry, cells or beads pass a laser one at a time.)

B1: I3145 (antibody, V domains shown)
VH: EVQLVETGGGLIQPGGSLRLSCAASGFTVSSNYMSWVRQAPGKGLEWVSVIYSGGSTYYADSVKGRFTISRDNSKNTLYLQMNSLRAEDTAVYYCARGLGSADYWGQGTLVTVSS
VL: DVVMTQSPLSLPVTLGQPASISCRSSQSLLHSNGNTYLNWFQQRPGQSPRRLIYKVSIRDSGVPDRFSGSGSGTDFTLKISRVEAEDVGLYYCMQSTQWPITFGGGTKLEIK
With B1, the binding result was “binds”.
